The supplement of paper PMC3334620
The full ranking holds about 33,000 sequences; the median of “E-score (-0.5 to 0.5)” is about -0.0059, and the highest 2% start at about 0.26. The list shows a part of the results.

biological target: T1, Cin5 (UniProt P40917); experiment: PBM E-score (8-mer binding enrichment) (E-score (-0.5 to 0.5)); higher = stronger / more preferred TF binding; conditions: protein concentration: 100 nM; construct: GST-full length
T1 sequence: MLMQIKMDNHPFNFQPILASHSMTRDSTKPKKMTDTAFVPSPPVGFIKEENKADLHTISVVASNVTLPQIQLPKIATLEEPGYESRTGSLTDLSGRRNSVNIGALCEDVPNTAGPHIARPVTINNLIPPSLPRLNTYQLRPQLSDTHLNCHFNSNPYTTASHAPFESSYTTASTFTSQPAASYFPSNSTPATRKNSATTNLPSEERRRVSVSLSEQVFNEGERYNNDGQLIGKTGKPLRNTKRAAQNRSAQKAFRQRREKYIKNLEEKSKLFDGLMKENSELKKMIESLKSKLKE
In short: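 GST-tagged yeast TFs (full-length or DNA-binding domain) were made by PURExpress in vitro transcription/translation and applied at about 100-200 nM to universal all-10-mer Agilent arrays. The arrays were made double-stranded by primer extension, on fresh or once-stripped slides. Bound protein was detected with fluorescent anti-GST, and scans were normalised with masliner. Each ungapped eight-base word, pooled with its reverse complement, received an E-score (modified Wilcoxon-Mann-Whitney statistic) from the Universal PBM Analysis Suite.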

Sequence | PBM E-score
ATCGATAG | 0.0934
AAGCAGAG | -0.0388
ACTCCTGC | 0.0393
GCAGACCA | -0.188
ATCTCGGG | 0.121
GCACTTTA | -0.0367
ACGCGACA | 0.0689
GCAGAGAA | -0.0127
GCCGGTCC | -0.3
CGGCTCAC | 0.0595
CGCGAGCC | -0.0158
CCGGGGAA | -0.00061
AATGGAAA | 0.203
AAGGGCAT | -0.295
AATCACAA | 0.127
AGTCCGAT | 0.00522
GTCTCAAC | -0.0587
ACTGGTCA | 0.0598
GATTATAA | 0.257
AGCGGTAC | 0.034
AAAGGATA | 0.0839
ATTGAGAG | 0.0908

Sequence | PBM E-score
CAGTACAG | 0.0274
GCCCAACA | -0.175
AATTAGTC | 0.26
AATCCCCT | -0.0363
CAGGCTTC | 0.00304
CAGTGCGA | 0.00838
CCGAAGCC | -0.231
AGCTGATG | 0.14
CCGGACTC | -0.0535
CAGTAGGG | -0.157
ATAGTCGG | -0.122
GGCGCGGA | -0.189
AGTGTGAC | -0.076
ACGTCCCC | -0.0955
ATCCTAGA | -0.0843
AGGGTACG | -0.111
ACAGTAGA | 0.153
CCTAAACA | -0.0904
ATATCCAA | 0.132
CCGAGCGC | -0.0761
TAGTCTAA | 0.0173
AATTGTTC | 0.175

2 consecutive entries out of the list so far, for reference:
Sequence | PBM E-score
CCGAGCGC | -0.0761
TAGTCTAA | 0.0173

Next records.

Sequence | PBM E-score
TTCTCCAA | -0.0656
CGCTAACG | -0.0379
GCAAGGCC | -0.183
AATCGATC | 0.127
GCAAGTAC | -0.0389
AAGACAAG | -0.0281
GAAAGGGC | -0.249
CTTGTCAC | -0.0969
CGTGGGTA | -0.138
CTGAGTCC | -0.27
AGCATGAC | 0.0442
AGATGTGG | -0.0232
CACACTGA | -0.0176
ATATAGGG | -0.0167
GTCGCCCA | -0.283
GTGATGTA | 0.172
GGGAGACC | -0.377
AACCCGCC | -0.0568
CTCACGCC | -0.0928
GTACAGAA | 0.0148
GGTTAAAA | -0.0394
CTACTACC | 0.0208

Sequence | PBM E-score
TGCCTTAA | -0.0943
ACACGTAA | 0.3
AACCTAGG | -0.0368
AAACGACG | 0.132
GCCGGGAA | -0.12
CAGCATCC | -0.067
GATCCTGA | 0.0241
CCGAGGGC | -0.155
TACCCCCA | -0.299
CGTGCTGA | 0.0279
AGCCTTAC | -0.241
CAAGATCC | 0.0682
GAGAACTA | 0.0749
CACCCAAG | -0.127
TCATAGCA | 0.0458
CGGGGCAG | -0.117
CCGACGAG | -0.151
CTTGAATC | -0.0191
CTGGAGGA | -0.281
CACGGCCA | -0.145
CCTATGCC | -0.134
TGCGGTAA | -0.044

Reformatted: entries from further up
Sequence,PBM E-score
CGTGCTGA,0.0279
AGCCTTAC,-0.241
CAAGATCC,0.0682
GAGAACTA,0.0749

More entries follow:

Sequence | PBM E-score
GGAGGGGA | -0.0844
GCCAACAA | -0.126
CCAGCAAG | -0.182
ACCGGTCC | -0.302
AAGTCGTG | 0.00511
AGCAGACC | -0.0747
CCTCTGTA | -0.204
GACTAACA | 0.0659
GAGGTAGC | -0.174
ACAAAACG | 0.178
AATAGTGT | 0.254
CGGTCACA | -0.0126
ATTCTTGA | 0.101
ATTGCCCG | -0.0833
GCTGATCA | 0.108
TATTGAAA | 0.257
AGCGCTGA | 0.0972
CATGGCAG | -0.0392
CCGAGCCG | -0.0876
ATCAACCA | 0.122
CCGGTTAC | 0.0723
GGTCCTAC | -0.212
